Laboratory results published in the supplement of paper PMC12889115.
The list shows a part of the results. These are raw signals, not scaled to a control.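 In the initial screen, polymyxin B was used at a concentration that permeabilizes Salmonella's outer membrane but not its inner membrane. Maximum growth was set by DMSO wells with or without polymyxin B. Since plates varied, data were ranked per plate, and compounds giving the lowest OD600 advanced as hits.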

System: Salmonella enterica serovar Typhimurium SL1344
Experiment: bacterial growth OD600 after 18 h with compound and polymyxin B; higher = more bacterial growth (less inhibition)
Details: 50 µM, Mueller-Hinton broth

Row | SMILES | bacterial growth OD600 (polymyxin B 0.75 µg/mL) | bacterial growth OD600 (polymyxin B 1 µg/mL)
1 | COc1ccc(CC2(CCC(=O)N(C)CCc3cnn(C)c3)CCC(=O)N2)c2ccccc12 (configuration not stated) | 0.78 | –
2 | O=C(NCCc1cccnc1)c1ccc2oc(CCc3ccccc3)nc2c1 | 0.607 | –
3 | Cc1csc(C(C)N(C)C(=O)CC2(c3cccc(C(F)(F)F)c3)CC(=O)N(C3CC3)C2=O)n1 (configuration not stated) | 0.781 | –
4 | COc1ccc(-c2ccccc2NC(=O)C2CCCN2CCCC(F)(F)F)cc1 (configuration not stated) | – | 0
5 | OCC1(CCOc2ccccc2)CCCN(Cc2ccoc2)C1 (configuration not stated) | – | 0.832
6 | CN(C(=O)c1cccnc1)C(Cc1ccc(F)cc1F)C1CCN(C(=O)C2(C)CCCCC2)CC1 (configuration not stated) | 0.858 | –
7 | Cn1ccnc1CNC1CC(=O)N(Cc2cccc3ccccc23)C1 (configuration not stated) | – | 0.931
8 | O=C(CCc1nnc(C2(c3ccc(Cl)cc3)CCC2)o1)NC1CCOCC1 | 0.832 | –
9 | C/C=C(\C)CN1CCCC(C(=O)Nc2ccc(-c3cscn3)cc2)C1 (configuration not stated) | – | 0.964
10 | O=C(c1ccsc1)N1CCC2(CCCN(Cc3ccc(F)cc3)C2=O)C1 (configuration not stated) | – | 0.863
11 | Cc1ccccc1Oc1ncccc1CNC(=O)Cc1n[nH]c2ccccc12 | – | 0.915
12 | CSCCCN1CCCCC1C(=O)Nc1ccc(Oc2cccnc2)cc1 (configuration not stated) | – | 0.953
13 | CCN1CCN(C2(C(=O)NCc3cc(F)ccc3C)Cc3ccccc3C2)CC1 | 0.666 | –
14 | CN(CCc1cnn(C)c1)c1nncc(-c2ccc3ccccc3c2)n1 | 0.009 | –
15 | O=C(NCCCn1nnc2ccccc21)c1cn(Cc2ccccc2F)nn1 | – | 0.931
16 | CC(C)Nc1ccc(C(=O)N2CCC(CCn3cccn3)CC2)cn1 | 0.783 | –

Row | SMILES | bacterial growth OD600 (polymyxin B 0.75 µg/mL) | bacterial growth OD600 (polymyxin B 1 µg/mL)
17 | CCNC(=O)c1cn(CC(C)C)cc(C(=O)NCc2ccccc2F)c1=O | 0.089 | –
18 | COCCN1C(=O)CC(CC(=O)N(C)Cc2ccccc2C(F)(F)F)(c2ccccc2F)C1=O (configuration not stated) | 0.273 | –
19 | O=C(NCc1ccsc1)C1CCCN(C2CCN(C(=O)C3CC3)CC2)C1 (configuration not stated) | 0.869 | –
20 | CCN(C)c1ccc(C(=O)N2CCCN(c3ncccn3)CC2)cn1 | – | 0.867
21 | CCCN1CCC(N2CCC(N3CCC(C(=O)NCc4cccnc4)CC3)CC2)CC1 | – | 1.1
22 | c1cnc2c(CN3CCc4[nH]nc(-c5ccc6c(c5)OCO6)c4C3)cccc2c1 | 0.853 | –
23 | Cc1ccc(OCC(=O)Nc2cccc(-c3nc(CNC(=O)Cc4c(C)noc4C)c(C)o3)c2)cc1 | 0.777 | –
24 | O=C(CCCn1cncn1)NC1CCCc2nc(-c3ccccc3)ncc21 (configuration not stated) | – | 0.933
25 | CC(C)CNC(=O)C1CCCN(C2CCN(c3nc4ccccc4o3)CC2)C1 (configuration not stated) | 0.883 | –
26 | COc1cc(C)c(CN2CCC3(CC2)c2ccccc2[C@@H](NC(=O)c2ccco2)[C@@H]3OC)cc1C | 0.006 | –
27 | CC(C)c1nc(CNC(=O)c2ccc(N3CCCCCC3)nc2)no1 | – | 0.876
28 | O=C1CN(C(=O)CC2c3ccccc3CCc3ccccc32)CCN1 | 0.931 | –
29 | CCOC(=O)C1(Cc2cccc(F)c2)CCN(Cc2cnn(CC)c2C)CC1 | – | 0.929
30 | CN(CC(O)c1ccccc1)C(=O)c1cc(Cn2ccc3ccccc32)[nH]n1 (configuration not stated) | – | 1.02
31 | C=CCC(O)(CC=C)CNC1CCN(c2cccc(NC(=O)CC3CCCC3)c2)CC1 | 0.851 | –
32 | COc1cccc(CC2(CO)CCCN(Cc3ccc(SC)cc3)C2)c1 (configuration not stated) | – | 0.875

In the list so far, 2 contain a thiophene ring, fused or not.
Row | SMILES | bacterial growth OD600 (polymyxin B 0.75 µg/mL) | bacterial growth OD600 (polymyxin B 1 µg/mL)
10 | O=C(c1ccsc1)N1CCC2(CCCN(Cc3ccc(F)cc3)C2=O)C1 (configuration not stated) | – | 0.863
19 | O=C(NCc1ccsc1)C1CCCN(C2CCN(C(=O)C3CC3)CC2)C1 (configuration not stated) | 0.869 | –
